No constants are given. Whether binding was seen depends on the method and setting. A result given as binding can be weak or reduced; the word gives no strength. Where a sequence is shown, tags or fusion partners need not be part of it.
Molecular target: cytosolic C-terminal fragment of AKT2 fused to the DNA-binding domain (BD:CtAKT2) (Arabidopsis thaliana)
Assay: two-hybrid; Matchmaker Gold; BD:CtAKT2 as bait (pGBKT7), AD:CtMRH1 as prey (pGADT7); library screen and direct test; growth on medium lacking adenine, histidine, tryptophan and leucine with aureobasidin A, 30 °C

binding: binds
B1: cytosolic C-terminal fragment of the MRH1 kinase fused to the activation domain (AD:CtMRH1) (domain or fragment, UniProt C0LGQ4 527-678)
chain: AAKVSEIPFNLEARLNPKKHVSGDLEQTSLLLPPEPEANVHSFGVLMLEIISGKLSFSDEYGSIEQWASKYLEKDDLGEMIDPSLKTFKEEELEVICDVIRECLKTEQRQRPSMKDVAEQLKQVINITPEKATPRSSPLWWAELEILSSEAT
